Experimental data published in the supplement of paper PMC3334620.
Over roughly 33,000 sequences, “E-score (-0.5 to 0.5)” has its median near -0.0034; the highest 2% begin near 0.25. Some of the results follow.

Biological target: T1, Yap3 (UniProt P38749)
T1 sequence: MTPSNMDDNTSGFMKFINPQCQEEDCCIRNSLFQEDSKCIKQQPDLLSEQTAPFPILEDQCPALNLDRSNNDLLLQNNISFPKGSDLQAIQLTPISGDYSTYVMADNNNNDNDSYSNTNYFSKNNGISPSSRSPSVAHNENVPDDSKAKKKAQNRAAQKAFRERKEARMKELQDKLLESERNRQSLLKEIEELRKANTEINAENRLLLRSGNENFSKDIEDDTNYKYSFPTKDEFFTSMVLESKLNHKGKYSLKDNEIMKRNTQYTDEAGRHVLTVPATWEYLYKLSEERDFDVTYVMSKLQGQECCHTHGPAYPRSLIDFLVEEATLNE
Assay: PBM E-score (8-mer binding enrichment) (E-score (-0.5 to 0.5)); higher = stronger / more preferred TF binding
Conditions: protein concentration: 100 nM; construct: GST-full length
Method in brief: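 For each ungapped eight-base word taken together with its reverse complement, the Universal PBM Analysis Suite assigned an E-score. Binding data came from GST-tagged yeast transcription factors, applied at about 100-200 nM, on universal all-10-mer Agilent arrays made double-stranded by primer extension. Fluorescent anti-GST marked bound protein, and scans were normalised with masliner.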

Sequence | PBM E-score
TGCGAACA | 0.0408
ATCGCTAG | -0.0254
GGGGAAGA | -0.135
AGTTGCCA | -0.128
ACCATCCC | 0.0119
ACTCCAAA | -0.0179
CTTCCCTA | -0.0518
CTGGTAAC | 0.121
CCTGTCGA | -0.0238
AGCTAGGA | -0.0851
AACAGACT | 0.078
AATCTGGG | -0.156
ATAAGCGG | 0.0448
GCACCCAC | 0.106
AAGGGGAA | -0.118
CCCGTACC | -0.0527
ACTAGGAT | -0.0127
ACAGGGGC | -0.137
AGTAGAAG | 0.0935
AAGACAGT | -0.0374
CAGTGGTA | -0.0994
CCCCGAAC | -0.191
CCCCTGAC | -0.178
AGTATTTC | 0.142
TATGTGGA | 0.159

Sequence | PBM E-score
ATGACCGG | 0.0112
GATTCTCC | -0.15
ACTCGAGC | 0.0632
TAGGAGAA | -0.178
AAATCGGT | -0.0628
AAACTCGT | 0.172
CCCTTCAA | -0.207
GTGGCCGA | -0.0536
AACGATCA | -0.0479
AAACTGAG | -0.0131
CAGTTAGC | -0.145
CACTCAGA | 0.0728
AGCAGGAC | -0.0425
GTGGATTA | 0.129
CTGCTACC | -0.0703
CCATAGTA | 0.0671
AGTGAACG | 0.0345
ATCGTGAC | -0.00843
ATTCTCGA | 0.235
GCTTAGTA | 0.198
CAATTACC | 0.0788
GAGGTTAA | 0.0046
GCCAACCC | -0.212
AGAGGCCC | -0.15
ATTTTATC | 0.235

Sequence | PBM E-score
AGCGATTC | 0.0497
ACTCCTTG | -0.0307
AAATACGA | 0.18
ACGCTACC | -0.206
CAGGAGGC | -0.111
GCCATCGA | 0.0216
GCAAAAGC | 0.0339
CGGTCGTA | -0.167
ACGAGGCA | -0.0571
CAAGGTAG | -0.142
GGGGTCCA | -0.233
CACGAGGC | 0.0285
CGGCAAAA | 0.0732
CTTTCGCA | -0.0437
ATCTAAAT | 0.172
CTTCGGTC | -0.0297
CGCCGGAG | -0.169
AACTAAAC | 0.138
CGTGTGAG | -0.0579
GAATGATA | 0.295
ACGGCACT | -0.0565
AAAACTCA | 0.218
CATCGACC | -0.00165
AGATGTGA | 0.155
AAGCAATT | 0.0889

As a short view, some entries already given:
Sequence | PBM E-score
ACTCCTTG | -0.0307
AAATACGA | 0.18
ACGCTACC | -0.206

Next results.

Sequence | PBM E-score
GCATTTTA | 0.227
TATGAAGA | 0.237
CCAGTTCG | -0.114
AGGAATCC | -0.205
ATCGGGTA | -0.101
TACATCGA | 0.0238
CTTACGCC | 0.086
ACGCTGAC | -0.00494
GCCTAAAA | -0.0144
CCTGCGCA | -0.158
GTACCAAC | 0.144
ATCGAAAC | -0.00841
CAGGCCCA | -0.2
ACAGCTAT | -0.0451
CCGTCCTA | -0.0795
CAGTGACG | -0.0475
GCTGTTAA | 0.0906
ACGCGTTG | -0.027
AATCGAGT | -0.0115
CATACATA | 0.21
AAGGTCCT | -0.173
AGACAGGC | -0.158
ATACACGA | 0.0474
AGTGTTCG | 0.0439
AATAACGA | 0.166

Looked up one by one from the entries so far, four records:
Sequence | PBM E-score
GCTTAGTA | 0.198
ATTCTCGA | 0.235
CAGTGGTA | -0.0994
AACAGACT | 0.078

Next part.

Sequence | PBM E-score
CGATACCC | -0.111
CGTGCACG | 0.0737
CTACCACC | -0.228
GTGACCCA | -0.167
ATCCGCGG | 0.0321
CCACCACC | -0.212
AATTGAAT | 0.191
CGACCACC | -0.11
ATAATAGA | 0.184
GATGTTTA | 0.055
CACAGACC | 0.182
GCATCAGC | -0.0511
TAGCATCA | 0.192
TCCCAAAA | 0.0977
AATCTAGC | -0.0397
CTCCGTTC | -0.0153
ACGGCCAA | 0.104
AGCAACTC | -0.00764
CGTCTCGC | -0.0754
AATCTGAA | 0.106
CAAGCAGG | -0.136
ATTTATCC | 0.199
AGAACCCG | -0.153
TAAAATTA | 0.28
CCTTACGA | 0.0364

Some of the entries so far, as a markdown table:

| Sequence | PBM E-score |
| --- | --- |
| CTACCACC | -0.228 |
| GTGACCCA | -0.167 |
| ATCCGCGG | 0.0321 |
| CCACCACC | -0.212 |

(cont.)

Sequence | PBM E-score
ATCTCTAA | 0.0664
TCATAACA | 0.182
GGCGTGGA | -0.165
ACAGATCA | 0.151
CACTCTCA | 0.0588
GAAATTAA | 0.342
CACATAGA | -0.0005
TCTCACAA | 0.225
AAAGGCTC | -0.273
ACCTCTTA | 0.176
CAGTTGGA | -0.0132
GACTATCA | -0.0199
CGTCGATA | 0.0961
ATCAAAAC | 0.101
CTGATTCA | 0.0545
GGAAGTCC | -0.203
GATGTAGC | -0.183
ATCAGACC | -0.0796
AATATGCA | 0.0838
AATGAGCT | 0.0573
ATCGCAAC | -0.029
GACAGCAA | 0.0356
ACTGGTCG | -0.125
ACGATCTA | -0.106
CTGGACCC | -0.294

Sequence | PBM E-score
GATCGCAC | -0.0294
ACTCAAGC | -0.0344
CGGTAAAG | 0.0182
GAAGAGTC | -0.123
CCCTGATA | -0.0063
GCCTCATA | -0.0285
ACGAGGGC | -0.14
AGTAATCC | 0.102
AGGGCGAG | -0.28
ATGTTAAA | 0.196
CATTGCCC | -0.105
ACGGATGG | 0.00048
AAAGATTA | 0.19
CGCTCTTC | -0.066
ATGAGCGC | 0.0791
GATTCCGA | 0.0892
AAACTAGT | 0.0395
GGACAGAA | 0.0573
CAGACTCA | -0.054
GTACACCA | 0.0388
CATCCCGC | -0.0818
ACTCGCCG | 0.185
